{
  "source": "patent US20060194800A1",
  "about": "“Pteridine derivatives as nitric oxide synthase activators” (University of Strathclyde, priority 2005, published 2006)",
  "key": {"rat pulmonary artery [1]": {"test_system": "rat pulmonary artery", "assay": "Rat pulmonary artery ring relaxation (endogenous tetrahydrobiopterin present)", "protocol": "(§1) Rings (5 mm long) of rat pulmonary artery and aorta, were supported on a pair of intraluminal wires at 1 gm tension for one hour and then contracted with their EC50 phenylephrine concentration, which for pulmonary artery was 3.6×10^−8 M (derived from preliminary experiments) and for aorta was 11.8×10^−8 M (from the previously published literature). The rings were then relaxed with carbachol (10 μM). If the relaxation to carbachol was >75%, then the tissues were used to generate dose responses by addition of tetrahydrobiopterin (BH4) or the analogues. Stock BH4 was stored at −20° C. and the dilutions were prepared using saline just before adding the drug into the bath. Solutions of analogues were stored at 4° C. Cumulatively increasing concentrations of the analogues were added to the bath and the extent of relaxation was measured when it had stabilised. Another ring from the same rat was treated in parallel with the solvent for the analogue. The solvent used was NH4OH. The results are shown graphically in FIGS. 1 and 2."}, "rat aorta": {"test_system": "rat aorta", "assay": "Rat aorta ring relaxation (endogenous tetrahydrobiopterin present)", "conditions": "normal rings, phenylephrine-contracted", "protocol": "as §1"}, "rat pulmonary artery [2]": {"test_system": "rat pulmonary artery", "assay": "BH4 depleted (DAHP) rat pulmonary artery relaxation", "conditions": "DAHP 10^-2 M for 6 h, tetrahydrobiopterin depleted", "protocol": "Rat pulmonary artery or aorta rings (as above) were placed in 15 ml tubes containing 2-3 ml of MEM (minimal essential medium) solution containing 0.1% bovine serum albumin, 100 U/ml penicillin and […] streptomycin. Some of the tubes in addition received diamino-hydroxy-pyrimidine (DAHP) 10^−2 M, an inhibitor of GTP cyclohydrolase, the rate-limiting step in tetrahydrobiopterin synthesis. The tubes were incubated at 37° C. for six hours. […] After the incubation with DAHP or the control incubation with the medium (MEM) alone, the rings were removed and then their relaxation in response to the analogue (or solvent NH4OH) was tested as above. Dose response curves of DAHP-treated tissues were compared to the control tissues treated in MEM alone for 6 hrs. The results are shown graphically in FIGS. 3 and 4. […] Thus WSG1002 is acting to enhance the ability of the endothelium to form NO and is not acting merely as a NO donor. The above procedures were used to mimic cardiovascular disease, by treating aorta and pulmonary artery rings with an inhibitor of the enzyme GTP cyclohydrolase, which is the rate-limiting step in the formation of tetrahydrobiopterin by cells. Treatment with this inhibitor, DAHP, for 6 hours reduced endogenous tetrahydrobiopterin levels in arteries to 4% of the normal content. […] This was found in both pulmonary artery and aorta (FIGS. 3 and 4). […]"}},
  "note": "“Also recorded” adds a separate entry of the source. At least one structure is not confirmed: it was looked up by name or label, or the drawing left a doubt.",
  "data": [
    {"compound": "C[C@H](O)[C@H](O)[C@H]1CNc2nc(N)[nH]c(=O)c2N1", "note": "[tetrahydrobiopterin]", "values": [
      {"measurement": "relaxation of rat pulmonary artery rings", "setting": "rat pulmonary artery [1]; normal rings, phenylephrine-contracted", "result": "did not produce any relaxation; also recorded: no relaxant effect"},
      {"measurement": "effect at the highest concentration of tetrahydrobiopterin", "setting": "rat pulmonary artery [1]; rat aorta or rat pulmonary artery rings", "result": "contraction"},
      {"measurement": "relaxation of rat aorta rings", "setting": "rat aorta", "result": "did not produce any relaxation"},
      {"measurement": "relaxation of rat pulmonary artery rings", "setting": "rat pulmonary artery [2]", "result": "no relaxant effect"}
    ]}
  ]
}
